## Library screen at single concentrations

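Growth of Mycobacterium tuberculosis over 4 days (cholesterol / DPPC medium with tyloxapol); the read-out is not stated. Concentration: 50 µM. The record gives no direction; compounds that gave an IC50 in retests scored well above the rest, so higher reads as more growth inhibition. About 69,000 compounds were tested under these conditions; 0.54% (about 370) showed 50% or more at least once.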

Each number is a percent effect as filed.
The record does not define 0% and 100%; most values in the screen are far below 50% and negative numbers occur (in some assays of this library far below -100).
Compounds were drawn at random from those tested, without regard to their results.
Two or more numbers in one place are separate tests of the same structure; such repeats can differ widely.

structure	percent effect
CNS(=O)(=O)c1cccc(C(C)NCc2cccc(O)c2)c1 (stereo not given)	15.68
COCCN(Cc1cccc(C#N)c1)Cc1nnsc1Cl	-22.38
Cc1ccccc1-c1cc(CC2(C(=O)O)CCOCC2)on1	-12.9
Cc1nc(C)n(CC2CCCCN2Cc2nnc(C3CC3)o2)n1 (stereo not given)	-0.7371
COc1cc(N2CCC3(CC2)CNC(=O)CO3)ncn1	17.42
O=C(c1cc(C2CCCCN2CCO)n[nH]1)N1CCOCC1.O=CO (stereo not given)	-26.86
[H][C@@]12CC[C@H](Oc3ccccc3)[C@]1([H])CN(C(=O)Cn1ccnc1)C2	-29.58
CC(=O)N1CCN(c2cnccn2)CC(CO)C1 (stereo not given)	17.97 and 1.555
CCCS(=O)(=O)N1CCC2(CC(=O)N(c3cnn(C)c3)C2)C1 (stereo not given)	-14.65
Cc1nc(C)c(S(=O)(=O)NC(=O)c2cccs2)s1	-16.28
COc1ccccc1CNC(=O)C(C)n1cc2c(n1)c(C)nn2C (stereo not given)	3.355
CN(C)c1ncccc1CNS(=O)(=O)c1c(F)cccc1F	3.008
Cc1csc(N2CCCN(C(=O)c3c(C)noc3C)CC2)n1	18.52
Cc1ccc(C(=O)CCC(=O)N2CCC(c3nncn3C)CC2)cc1	-5.327
CCCn1c(C)c(CC(=O)NCC(N)=O)c2c1CC(C)(C)CC2=O	17.8
Cc1cccc2cc(C(=O)N3CCSCC3)n(C)c12	12.42
[H][C@@]12COC[C@H](C(=O)N3CCCCO3)[C@]1([H])CN(C1CCOCC1)C2	-15.29
CN1CCc2ccc(NCc3cccs3)cc2C1=O	31.29
CCOCC(O)CN1CCN(C(=O)Cc2ccc3c(c2)CCC3)CC1 (stereo not given)	-30.05
Cc1csc2c(=O)n(CCN3CCC(c4ccccc4)CC3)cnc12	7.438
Cc1ccc(N2CCC3(CN(Cc4ccncc4)CCC3(F)F)C2)nn1.O=C(O)C(F)(F)F.O=C(O)C(F)(F)F (stereo not given)	14.14
CC(C)N(C(=O)Cn1cc(Cl)cn1)c1ccccc1	-13.19
O=C(O)C(F)(F)F.[H][C@]12CCN(Cc3ccco3)C[C@@]1([H])OCCN(C(=O)c1ccsc1)C2	5.536
Cc1ccc(N2CCCC(NCc3ccc(Cl)o3)C2)nn1 (stereo not given)	-11.51
CN1CC=C(CCN(C)C(=O)CCc2ccccc2)CC1	14.58
Cc1nc(C2(NCC(=O)NCCc3cccs3)CCCC2)no1	-0.3777
Cc1cnn(CC2CCN(CC(O)COc3ccc(F)cc3)CC2)c1 (stereo not given)	-18.77
O=C(COC(=O)Cc1cccs1)NCc1cccc(NC(=O)C2CC2)c1	-15.32
CC(C)(C)CN[C@@H]1CO[C@H](CNC(=O)C2CCCC2)[C@H]1O	-12.46
CCC(NCc1ncc[nH]1)c1nc(C(F)(F)F)cs1 (stereo not given)	0.054 and 12.99
Cc1cccc(C(=O)N2CCCN(CCCSCC#N)CC2)c1	0.4661
Cc1cc(C)n(Cc2ccc(-c3noc(C(=O)NC[C@@H](C)O)n3)cc2)n1	3.484
CN1CCCC1(CCCc1cccnc1)C(=O)NCc1nccn1C (stereo not given)	0.9213
COC(=O)N1CCN(C(=O)c2ccc(C)c(N3CCNC3=O)c2)CC1	-31.83 and -0.4862
CCOCCCNC(=O)CN(c1ccc(F)c(F)c1)S(C)(=O)=O	-12.64
CNC[C@H]1CC[C@H](c2cc(CN(C)C(=O)c3cnccn3)n(C)n2)CC1.Cl	15.09
O=C(c1ccc(CN2CCCC2)cc1)N1CCCC(n2cccn2)C1 (stereo not given)	2.103
CC(C)CN1CCCC1c1ccc(C(=O)Nc2cc[nH]n2)s1 (stereo not given)	-3.327 and -16.58
CN1CC=C(c2noc(CCC(=O)N3CCCC3)n2)CC1	-5.316
CC(=O)N(C)c1nc(CN2CCN(c3nccs3)CC2)cs1	-12
Cn1cc(CN(Cc2ccccc2)CC(O)c2cccs2)cn1 (stereo not given)	17.19
Cc1occc(=O)c1OCc1noc(C(=O)NCC2CC2)n1	-9.487
CCc1nnc2n1CCN(CCC(=O)Nc1sccc1C#N)C2	-9.796
CCn1c(Cn2cncn2)nnc1C1CCN(C(=O)CCSC)CC1	3.936
CCN1CCN(CCNC(=O)c2sc(C)nc2C)CC1	-15.52
CN1CCCC2(CCN(C(=O)CCn3cncn3)C2)C1=O (stereo not given)	-17.95
[H][C@@]12CC[C@H](Oc3ccccc3Cl)[C@]1([H])CN(C(=O)CNC(C)=O)C2	55.34
COc1cc(NC(=O)c2cccc(N(C)C)c2)cc(OC)c1	-12.28
NCc1cn(CC2CCCN(C(=O)NCCc3ccc(F)cc3)C2)nn1 (stereo not given)	-21.86
Cl.c1cc(CNCc2cccc3c2OCCCO3)cc(Cn2cncn2)c1	4.552
O=C(C1CN(c2ncc(F)cn2)CC12CCOCC2)N1CCOCC1 (stereo not given)	14.64
Cc1ccc(C(=O)N2Cc3c(CN4CCCCC4)nn(C)c3C2)cc1F.O=C(O)C(F)(F)F	-27.03
c1ccc(-c2cnn3cc(CN4CCC5(CCO5)CC4)cnc23)cc1	3.269
Cc1cc(CNc2nccc(N)n2)c2[nH]c(C)c(C)c2c1	15.08
O=C(CCNC(=O)c1ccccc1)Nc1ccncc1	-21.53
CN(Cc1cccnc1)C1CCCN(Cc2noc(C3CC3)n2)C1 (stereo not given)	-26.7
Cn1ccc(CN2CCC(c3ccccc3)CC2)cc1=O	-17.08
O=C(Cn1cnc2ccsc2c1=O)NCCCc1nnc2ccccn12	-30.37
COCC(C)NC(=O)N(C)Cc1cc(C)on1 (stereo not given)	13.17
Cc1cccc(-c2nnc(C(C)N3CCn4c(C)nnc4C3)o2)c1 (stereo not given)	10.98
CC(=O)Nc1ncc(S(=O)(=O)Nc2cccc(F)c2)s1	-14.98
CC(=O)NCCNc1cc(C)nc2cc(C)nn12	2.218
CNC(=O)c1cccnc1NCc1ccc(Cn2ccnc2)cc1	23.91
CC[C@@H]1N(Cc2ccco2)CCC[C@]12CCC(=O)N2C.O=C(O)C(F)(F)F	-13.6 and -7.459

For reference, 5 entries once more:

| structure | percent effect |
|---|---|
| `Cc1nc(C2(NCC(=O)NCCc3cccs3)CCCC2)no1` | -0.3777 |
| `CCC(NCc1ncc[nH]1)c1nc(C(F)(F)F)cs1` (stereo not given) | 0.054 and 12.99 |
| `CC(C)N(C(=O)Cn1cc(Cl)cn1)c1ccccc1` | -13.19 |
| `Cc1cccc2cc(C(=O)N3CCSCC3)n(C)c12` | 12.42 |
| `O=C(O)C(F)(F)F.[H][C@]12CCN(Cc3ccco3)C[C@@]1([H])OCCN(C(=O)c1ccsc1)C2` | 5.536 |

Source: ChEMBL document CHEMBL3988442, “University of Dundee, Small-Polar-MMV Screening Library” (2021).